# Percent effect of library compounds

Source: ChEMBL document CHEMBL3988442, “University of Dundee, Small-Polar-MMV Screening Library” (2021).

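Assay of Toxoplasma gondii numbers, read through their beta-galactosidase reporter with a colour substrate. Tested at 50 µM. Higher reads as fewer parasites (inferred from which compounds were picked for retests). About 18,000 compounds were tested under these conditions; 0.94% (about 170) showed 50% or more at least once.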

Values are the deposited “Percent Effect”, in %. The controls that fix the scale are not given in the record; negative values are as filed. This is an unselected part of the compounds tested.

SMILES | percent effect
Cc1occc1C(=O)N1CCC(NC(=O)C2CC2)CC1 | -3.945
CC(CN)N1CCN(C)CC1 (configuration not stated) | 3.642
CCN(C)c1ccc(CN)cc1F | 4.863
Cn1ncc(C#N)c1N | -0.1254
COc1cccc2c1C(N)CO2 (configuration not stated) | -27.67
N#CCOc1ccc(NC(=O)c2ccncc2)cc1 | -12.19
O=C(NC1CC1)c1cc(-c2cccs2)on1 | 3.951
CC(C)CSc1nnc(CN2CCCC2=O)o1 | 43.6
CN(C)[C@H]1CCN(C(=O)CCc2ccncc2)C1 | 0.3822
CCOC(=O)CSCN1C(=O)c2ccccc2C1=O | 1.569
NCC1CC12CCSCC2 (configuration not stated) | -15.84
CNC(=O)c1sc(CN2CCOCC2)nc1C | -5.779
Cc1cccc(CCO)c1 | 26.69
O=C(CSc1nnnn1Cc1cccs1)NC1CC1 | -25.88
Cn1nccc1C(=O)N1CCc2ccc(O)cc2C1 | 3.41
CNC(=O)CN1CCC(Oc2ccccc2)C1 (configuration not stated) | 0.1737
CN(C)[C@@H]1CN(C(=O)c2ccccc2Br)C[C@H]1CO | 43.22
O=C1CCC(C(=O)Nc2ccc3c(c2)CCC3)=NN1 | -1.527
CC(CNS(N)(=O)=O)Cc1cccs1 (configuration not stated) | -3.28
O=S(=O)(CCO)Cc1ccc(Br)s1 | 7.509
OCC(O)CSCCN1CCCc2ccccc21 (configuration not stated) | -3.605
Cc1csc(NC(=O)CSCc2nnc(C)o2)n1 | -1.208
Cn1nnnc1SCCOc1cccc(F)c1 | 19.8
O=C1CCC(NC(=O)NCc2ccccc2F)CN1 (configuration not stated) | -3.596
Cc1cc(C(=O)N2CC[C@H]3CC[C@@H](C2)N3)nc(C)n1 | 2.124
CC(=O)Nc1ccc2c(c1)C(=O)N(C(C)C)C2=O | 0.1452
CCCC(N)C(=O)Nc1nccs1 (configuration not stated) | 29.82
O=C(CSc1ncccc1Br)N1CCCC1 | 5.314
Cc1c[nH]nc1CN1Cc2ccccc2CC1C(N)=O (configuration not stated) | -0.8601
CC(C)CS(=O)(=O)CC(=O)NC1CCc2nccn2C1 (configuration not stated) | 2.561
Cc1cc(C(=O)NCC(O)c2ccccc2Cl)no1 (configuration not stated) | 19.73
CNCC(=O)NCc1cnc(-c2cccc(OC)c2)s1 | 6.081
COc1ccccc1CCC(=O)N[C@@H]1CCNC[C@H]1O | 26.33
O=C1Nc2ccccc2C12CCNC2 (configuration not stated) | -7.992
Cc1noc(C)c1CC(=O)N1CCNCC1 | 11.16
Cc1occc1-c1nnc(SCC(=O)NC2CC2)o1 | -5.602
Cc1cnn(CCNCc2ccc(C(N)=O)cc2)c1 | -5.946
CCN(Cc1ccccc1OCCO)[C@H]1COC[C@@H]1O | 2.304
OC[C@@H]1CCCN1Cc1cc(F)cc2cccnc12 | -2.063
CCOc1cc(C)ccc1S(N)(=O)=O | 0.405
CCc1nnsc1C(=O)NCc1cccnc1N(C)C | -14.26
Cn1ncc(Sc2nc3ncccn3n2)c(Br)c1=O | -17.89
CCN(CCC(N)=O)Cc1cccc2c1OCO2 | 5.674
Cc1n[nH]c(C)c1-c1cncc(C(=O)N2CCCC2)n1 | -1.974
CC(=O)Nc1nc(CCN)cs1 | -34.43
COC(C(=O)Nc1nccc(C)n1)C1CC1 (configuration not stated) | -7.65
CCc1nc(COC2CCNCC2)no1 | 0.8368
CC1CN(C(=O)CCc2ccccc2)CCO1 (configuration not stated) | -9.245
Oc1cc(C(F)(F)F)ccn1 | 22.78
CCC(=O)NCC(=O)NC(CC)c1nc(C)no1 (configuration not stated) | -7.607
CS(=O)(=O)c1ccc(CN)cc1C(F)(F)F | 5.996
CC(=O)c1c(F)cccc1N1CCOCC1 | 22.86
CC(=O)Nc1cccc(C(C)O)c1 (configuration not stated) | 1.474
CNC(=O)c1ccc(CNC(=O)C2CCOC2)o1 (configuration not stated) | -0.8095
O=C1NCC(=O)N2CCCC12 (configuration not stated) | -9.576
CN(C)C(CNC(=O)c1ccncc1)c1ccco1 (configuration not stated) | -3.507
COc1ncccc1NC(=O)NCc1cc[nH]n1 | 6.805
CCCc1nnc(N2CCC3(CC2)OCC(C)O3)s1 (configuration not stated) | 1.163
NC(=O)CSc1ccnc(SCC(N)=O)n1 | 2.798
COC(C(=O)NCc1nc(C)c[nH]1)c1ccccc1 (configuration not stated) | -9.612
CN(C)CCNC(=O)C1CCc2ccccc2N1 (configuration not stated) | 5.882
O=C(NCCN1CCCCC1)NC1CCS(=O)(=O)C1 (configuration not stated) | 9.212
CCCc1nnc(NC(=O)c2cccnc2OCC)s1 | -3.622
O=C1C(NCc2ccco2)CCCN1c1cccnc1 (configuration not stated) | -2.989
CCC(=O)[C@@H]1CCCN1 | 3.347
CC(=O)N1CCNC1=O | -2.566
O=C(C1CCC1)N1CCC(CCN2CCOCC2)CC1 | -1.316
CN(Cc1ccccc1)C(=O)CN | -2.436
CNCc1cnc(C)cn1 | -0.541
NC(=O)CCN(C(=O)c1ccccc1)c1ccccc1 | 0.4128
CCN(CC)C(=O)CN(C)C(=O)CC(C)(C)C#N | 11.62

The first 5 entries again:

SMILES,percent effect
Cc1occc1C(=O)N1CCC(NC(=O)C2CC2)CC1,-3.945
CC(CN)N1CCN(C)CC1 (configuration not stated),3.642
CCN(C)c1ccc(CN)cc1F,4.863
Cn1ncc(C#N)c1N,-0.1254
COc1cccc2c1C(N)CO2 (configuration not stated),-27.67